Test results taken from PubChem BioAssay AID248 (DTP/NCI, 2004).
The list is a part of this screen's results and no random one: its compounds were picked by chemical class. Not every dose and run of a compound is shown. T/C gives the treated animals as a percentage of the vehicle group. Some doses have a count of surviving animals in place of a T/C: the source holds a T/C of zero for them, seemingly a mark for toxic or unscored doses. Some doses without a T/C left all or most animals alive at the check, yet need not have been tolerated: the source hardly ever lists a survival T/C far under the control, and the zero likely stands for such cases as well. Counts of survivors are from the toxicity check (mostly the fifth day) where no day follows; animals may have died later. Schedule codes are those of the source, taken here to give the interval after Q, in days (D) or hours (H), and the number of doses after X. Some schedule codes hold Z or #, which are not explained here. For survival time, the PubChem record calls one and a half times the control and up active, and a quarter to a half above the control has no call in these data; cut-offs in other NCI protocols can differ. Some entries were tested several times; their values stand side by side, smallest first. Some entries show no survivor count and are marked so; the dose need not have been tolerated. Some T/C values are followed by the survivors on the day toxicity was checked, most often the fifth; where neither a count nor a note follows, no animal had died by that day.

Tested on: L1210 leukemia ip in BDF1 mice, survival T/C
Assay: NCI In Vivo Anticancer Drug Screen. Data for tumor model L1210 Leukemia (intraperitoneal) in B6D2F1 (BDF1) mice
Settings: T/C endpoint: mean survival time, higher T/C = longer survival
[1] = dose: 100.0 mg/kg/injection, schedule: Q01DX009 (ip), vehicle: Klucel (hydroxypropylcellulose) (HPC)
[2] = dose: 200.0 mg/kg/injection, schedule: Q01DX009 (ip), vehicle: Klucel (hydroxypropylcellulose) (HPC)
[3] = dose: 400.0 mg/kg/injection, schedule: Q01DX009 (ip), vehicle: Klucel (hydroxypropylcellulose) (HPC)
[4] = dose: 100.0 mg/kg/injection, schedule: Q04DX003 (ip), vehicle: Klucel (hydroxypropylcellulose) (HPC)
[5] = dose: 200.0 mg/kg/injection, schedule: Q04DX003 (ip), vehicle: Klucel (hydroxypropylcellulose) (HPC)
[6] = dose: 400.0 mg/kg/injection, schedule: Q04DX003 (ip), vehicle: Klucel (hydroxypropylcellulose) (HPC)

O=[N+]([O-])c1cccc(SC2CCCCC2Cl)c1 (stereo not given)
T/C [1]: 100 % of control | T/C (dose: 100.0 mg/kg/injection, schedule: Q04DX002 (ip), vehicle: Klucel (hydroxypropylcellulose) (HPC)): 97 % of control | T/C [2]: 100 % of control | T/C (dose: 200.0 mg/kg/injection, schedule: Q04DX002 (ip), vehicle: Klucel (hydroxypropylcellulose) (HPC)): 100 % of control | T/C [3]: 100 % of control | T/C (dose: 400.0 mg/kg/injection, schedule: Q04DX002 (ip), vehicle: Klucel (hydroxypropylcellulose) (HPC)): 107 % of control

O=P(O)(O)F
T/C (dose: 50.0 mg/kg/injection, schedule: Q01DX001 (ip), vehicle: carboxymethylcellulose (CMC)): 96 % of control | T/C (dose: 100.0 mg/kg/injection, schedule: Q01DX001 (ip), vehicle: carboxymethylcellulose (CMC)): 105 % of control | T/C (dose: 200.0 mg/kg/injection, schedule: Q01DX001 (ip), vehicle: carboxymethylcellulose (CMC)): 105 % of control | survivor count (dose: 400.0 mg/kg/injection, schedule: Q01DX001 (ip), vehicle: carboxymethylcellulose (CMC)): 1 of 4

O=[N+]([O-])N=c1[nH]cc[nH]1
T/C [4]: 94 % of control | T/C [5]: 104 % of control | T/C [6]: 104 % of control

O=P(NCCCO)(OCCCCl)N(CCCl)CCCl (stereo not given)
T/C (dose: 28.0 mg/kg/injection, schedule: Q01DX Z (ip), vehicle: methylcellulose (MC)): 97 % of control | T/C (dose: 56.0 mg/kg/injection, schedule: Q01DX Z (ip), vehicle: methylcellulose (MC)): 112 % of control | T/C (dose: 112.0 mg/kg/injection, schedule: Q01DX Z (ip), vehicle: methylcellulose (MC)): 130 % of control [5 of 6 alive] | survivor count (dose: 225.0 mg/kg/injection, schedule: Q01DX Z (ip), vehicle: methylcellulose (MC)): 2 of 6

O=C(O)CN1CC([N+](=O)[O-])([N+](=O)[O-])CC([N+](=O)[O-])([N+](=O)[O-])C1
T/C (dose: 75.0 mg/kg/injection, schedule: Q01DX001 (ip), vehicle: carboxymethylcellulose (CMC)): 96 % of control [survivor count not shown]

CCOP(=O)(N(CCCl)CCCl)N1CC1 (stereo not given)
T/C (dose: 1.0 mg/kg/injection, schedule: Q01DX Z (ip), vehicle: saline): 102 % of control | T/C (dose: 2.0 mg/kg/injection, schedule: Q01DX Z (ip), vehicle: saline): 93 % of control | T/C (dose: 4.0 mg/kg/injection, schedule: Q01DX Z (ip), vehicle: saline): 93 and 104 % of control | survivor count (dose: 8.0 mg/kg/injection, schedule: Q01DX Z (ip), vehicle: saline): 6 of 6 | survivor count (dose: 16.0 mg/kg/injection, schedule: Q01DX Z (ip), vehicle: saline): 4 of 6 | survivor count (dose: 32.0 mg/kg/injection, schedule: Q01DX Z (ip), vehicle: saline): 0 of 6 | survivor count (dose: 62.5 mg/kg/injection, schedule: Q01DX010 (ip), vehicle: saline): 4 of 6 | survivor count (dose: 64.0 mg/kg/injection, schedule: Q01DX Z (ip), vehicle: saline): 0 of 6 | survivor count (dose: 125.0 mg/kg/injection, schedule: Q01DX010 (ip), vehicle: saline): 0 of 6 | survivor count (dose: 250.0 mg/kg/injection, schedule: Q01DX010 (ip), vehicle: saline): 0 of 6

COP(O)OP(O)CC(C)=O (stereo not given)
T/C (dose: 75.0 mg/kg/injection, schedule: Q04DX002 (ip), vehicle: saline with Tween-80): 94 % of control | T/C (dose: 150.0 mg/kg/injection, schedule: Q04DX002 (ip), vehicle: saline with Tween-80): 94 % of control | T/C (dose: 300.0 mg/kg/injection, schedule: Q04DX002 (ip), vehicle: saline with Tween-80): 102 % of control

C1CN1.C=CC(=O)OCCOc1ccccc1
T/C (dose: 20.0 mg/kg/injection, schedule: Q01DX009 (ip), vehicle: Klucel (hydroxypropylcellulose) (HPC)): 103 % of control | T/C (dose: 40.0 mg/kg/injection, schedule: Q01DX009 (ip), vehicle: Klucel (hydroxypropylcellulose) (HPC)): 105 % of control | T/C (dose: 80.0 mg/kg/injection, schedule: Q01DX009 (ip), vehicle: Klucel (hydroxypropylcellulose) (HPC)): 97 % of control | T/C [1]: 103 % of control [4 of 6 alive] | T/C [4]: 102 % of control [5 of 6 alive] | survivor count [2]: 2 of 6 | T/C [5]: 109 % of control | survivor count [3]: 0 of 6 | T/C [6]: 89 % of control [4 of 6 alive]
